From PMC4273604
No constants are given. Whether binding was seen depends on the method and setting. For some assays here: In cells and extracts the contact can be indirect. Some results given as binding are weak or reduced against the parent protein; the word gives no strength. Sequences can lack the tags named with a protein.

Protein sequences, listed by entry. Tags and fused reporters are not part of them.
UniProt P77324: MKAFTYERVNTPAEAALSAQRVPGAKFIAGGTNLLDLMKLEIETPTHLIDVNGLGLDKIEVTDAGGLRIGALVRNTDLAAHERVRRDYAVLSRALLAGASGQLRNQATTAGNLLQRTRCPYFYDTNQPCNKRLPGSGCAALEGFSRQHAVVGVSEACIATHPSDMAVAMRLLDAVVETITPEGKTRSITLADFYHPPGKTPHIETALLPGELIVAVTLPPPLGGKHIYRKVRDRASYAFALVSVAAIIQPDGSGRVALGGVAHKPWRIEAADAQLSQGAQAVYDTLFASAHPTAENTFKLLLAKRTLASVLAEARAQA

Columns and labels:
[1] = target: T1, PaoA in the periplasmic fraction of ΔpaoAB-paoC::Kan cells expressing PaoABC (E. coli) (UniProt P77165); experiment: SEC; gel filtration of the periplasmic fraction of ΔpaoAB-paoC::Kan cells expressing PaoABC
T1 sequence: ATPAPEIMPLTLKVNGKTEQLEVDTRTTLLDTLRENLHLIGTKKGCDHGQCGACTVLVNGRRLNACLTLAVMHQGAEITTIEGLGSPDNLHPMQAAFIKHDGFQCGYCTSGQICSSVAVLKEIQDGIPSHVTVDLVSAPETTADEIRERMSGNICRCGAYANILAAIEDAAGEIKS

[2] = target: T1, PaoA in the periplasmic fraction of ΔpaoAB-paoC::Kan cells expressing PaoABC (E. coli); experiment: native gel or EMSA; blue native PAGE of the periplasmic fraction of ΔpaoAB-paoC::Kan cells expressing PaoABC
[3] = target: T2, PaoA with a 6xHis-tag (hexahistidine-tagged version of PaoA, from plasmid pPaoAhBC) (E. coli) (UniProt P77165); experiment: native gel or EMSA; blue native PAGE (Novex NativePAGE) of the Ni2+-affinity eluate with the co-purified Pao proteins, desalted into 20 mM Tris/Cl pH 7.4
T2 sequence: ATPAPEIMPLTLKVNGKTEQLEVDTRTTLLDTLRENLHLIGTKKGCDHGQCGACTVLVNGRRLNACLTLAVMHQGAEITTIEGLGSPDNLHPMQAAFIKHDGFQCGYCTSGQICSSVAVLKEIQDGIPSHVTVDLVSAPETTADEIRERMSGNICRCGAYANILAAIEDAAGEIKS

[4] = target: T2, PaoA with a 6xHis-tag (hexahistidine-tagged version of PaoA, from plasmid pPaoAhBC) (E. coli); experiment: pull-down; PaoA-6xHis co-produced with PaoB-FLAG and PaoC-HA in ΔpaoAB-paoC::Kan cells; soluble lysate on Ni-NTA spin columns, washed with 50 mM NaH2PO4, 300 mM NaCl, 20 mM imidazole pH 8.0, eluted with 500 mM imidazole; immunoblot of the eluate

Measured: binding

PaoB-FLAG (from UniProt P77324 1-318)
binds: all assays above

B1: PaoC-HA (protein, UniProt P77489 1-732)
chain: MKFDKPAGENPIDQLKVVGRPHDRIDGPLKTTGTARYAYEWHEEAPNAAYGYIVGSAIAKGRLTALDTDAAQKAPGVLAVITASNAGALGKGDKNTARLLGGPTIEHYHQAIALVVAETFEQARAAASLVQAHYRRNKGAYSLADEKQAVNQPPEDTPDKNVGDFDGAFTSAAVKIDATYTTPDQSHMAMEPHASMAVWDGNKLTLWTSNQMIDWCRTDLAKTLKVPVENVRIISPYIGGGFGGKLFLRSDALLAALAARAVKRPVKVMLPRPSIPNNTTHRPATLQHLRIGADQSGKITAISHESWSGNLPGGTPETAVQQSELLYAGANRHTGLRLATLDLPEGNAMRAPGEAPGLMALEIAIDELAEKAGIDPVEFRILNDTQVDPADPTRCFSRRQLIECLRTGADKFGWKQRNATPGQVRDGEWLVGHGVAAGFRNNLLEKSGARVHLEQNGTVTVETDMTDIGTGSYTILAQTAAEMLGVPLEQVAVHLGDSSFPVSAGSGGQWGANTSTSGVYAACMKLREMIASAVGFDPEQSQFADGKITNGTRSATLHEATAGGRLTAEESIEFGTLSKEYQQSTFAGHFVEVGVHSATGEVRVRRMLAVCAAGRILNPKTARSQVIGAMTMGMGAALMEELAVDDRLGYFVNHDMAGYEVPVHADIPKQEVIFLDDTDPISSPMKAKGVGELGLCGVSAAIANAVYNATGIRVRDYPITLDKLLDKLPDVV
binds: all assays above
